Assay results as given in patent US4978744A (Arizona Board of Regents, priority 1989, dated 1990).

Test: general procedure: solution-phase peptide synthesis; pivaloyl anhydride coupling for the N-methyl amino acid (Dil)

Substance: dolastatin 10
- step yield: 74%
